In PMC8565929 (eLife, 2021):
Read-outs that look alike come from different tables or passages of the source. These are yes or no findings as the source states them, for the method shown. In cells and extracts the contact can be indirect. Some binding calls cover weakened binding; strength is not graded here. Tags and fused reporters may be left off the sequences shown. Blank lines part the entries; values can stand above or below the binder they belong to.

Assays:
[1] = molecular target: T1, DDK (Hsk1-HA with Dfp1-myc) (S. pombe) (UniProt P50582+O59836); test: cross-linking + co-IP
T1 sequence 1: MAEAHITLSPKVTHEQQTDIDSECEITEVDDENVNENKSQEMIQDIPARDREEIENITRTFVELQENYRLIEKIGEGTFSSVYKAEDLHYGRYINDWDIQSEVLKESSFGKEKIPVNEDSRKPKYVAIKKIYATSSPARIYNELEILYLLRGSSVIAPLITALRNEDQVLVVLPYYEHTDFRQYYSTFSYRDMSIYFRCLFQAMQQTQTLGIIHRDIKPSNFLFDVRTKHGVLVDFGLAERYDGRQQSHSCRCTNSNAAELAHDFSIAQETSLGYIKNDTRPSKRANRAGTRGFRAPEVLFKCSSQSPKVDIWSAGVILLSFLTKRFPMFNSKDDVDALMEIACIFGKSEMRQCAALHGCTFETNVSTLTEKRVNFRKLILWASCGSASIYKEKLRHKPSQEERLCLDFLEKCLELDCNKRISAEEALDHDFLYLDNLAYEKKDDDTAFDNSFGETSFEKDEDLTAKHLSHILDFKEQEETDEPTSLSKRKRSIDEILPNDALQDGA
T1 sequence 2: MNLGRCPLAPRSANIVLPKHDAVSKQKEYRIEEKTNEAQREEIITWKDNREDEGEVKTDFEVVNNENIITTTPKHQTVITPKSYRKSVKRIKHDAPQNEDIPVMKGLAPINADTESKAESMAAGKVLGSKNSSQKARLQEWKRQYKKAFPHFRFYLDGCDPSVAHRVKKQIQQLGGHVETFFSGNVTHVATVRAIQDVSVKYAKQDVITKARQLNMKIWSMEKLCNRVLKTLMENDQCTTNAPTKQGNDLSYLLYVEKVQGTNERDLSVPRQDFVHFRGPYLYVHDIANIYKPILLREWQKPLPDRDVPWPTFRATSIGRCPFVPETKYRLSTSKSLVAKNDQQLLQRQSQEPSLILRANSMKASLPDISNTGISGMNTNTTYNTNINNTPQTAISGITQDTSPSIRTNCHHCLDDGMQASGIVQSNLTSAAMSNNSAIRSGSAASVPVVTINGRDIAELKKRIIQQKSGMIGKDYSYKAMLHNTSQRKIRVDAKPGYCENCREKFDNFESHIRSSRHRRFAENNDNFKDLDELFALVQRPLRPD

[2] = molecular target: T2, HA-Pof3 (pSLF272 vector) (S. pombe) (UniProt O74991); test: co-IP
T2 sequence: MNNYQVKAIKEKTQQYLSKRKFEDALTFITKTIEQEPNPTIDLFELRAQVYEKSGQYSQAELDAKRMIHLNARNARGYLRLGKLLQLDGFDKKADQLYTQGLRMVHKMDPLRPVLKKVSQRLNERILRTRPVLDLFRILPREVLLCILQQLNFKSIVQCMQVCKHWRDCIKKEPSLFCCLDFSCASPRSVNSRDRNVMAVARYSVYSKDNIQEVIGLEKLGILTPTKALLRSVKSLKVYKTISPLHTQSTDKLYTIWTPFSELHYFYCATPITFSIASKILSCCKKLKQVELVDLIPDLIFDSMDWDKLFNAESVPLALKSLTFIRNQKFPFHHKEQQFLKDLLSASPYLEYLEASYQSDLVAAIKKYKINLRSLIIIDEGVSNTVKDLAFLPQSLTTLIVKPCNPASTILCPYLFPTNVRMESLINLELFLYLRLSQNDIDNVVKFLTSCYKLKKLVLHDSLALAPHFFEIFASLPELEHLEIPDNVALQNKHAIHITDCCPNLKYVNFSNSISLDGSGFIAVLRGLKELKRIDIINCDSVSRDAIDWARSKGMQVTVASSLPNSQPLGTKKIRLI

[3] = molecular target: T2, HA-Pof3 (pSLF272 vector) (S. pombe); test: co-IP; remark: listed apart in the source

binding [1]: binds
B1: TAP-tagged Hst4 (pREP81 vector) (protein, UniProt Q9UR39 1-415)
chain: MKVEEHVPLIQESRKRKCQSSENASKRQQLLSKLPLRLHTGNENVDLSPLVSAIRKAKRIVVVTGAGISCDAGIPDFRSSEGLFSSLRAEYKLNCSGKELFDGSVYRDLKSVNIFHAMIRKLHMLSNNARPTDFHLFLSQLAQESKLLRLYTQNIDFLETRLEGLQTCIPLPQSAPWPTTIPLHGTLEVVSCTRCSFLKKFNPDIFDRNGVTVCPDCKTENEVRRIAGKRSVIEGCLRPRIVLYNEIHPDSESIGSVCSQDLKSRPDCLIVAGTSCKIPGVKRIIKEMSNCVHKQKGNVIWLNYDEPTKDFLNLCDLVVQGDLQIAIRRLKPLLDAPSWKLKSHSAKRTSKQKSSEQTKITSSTKITKAIGLNTKSNDSSKKDNTSFQLHQVLNSIEIPKVEIKQEVEYATPSPL

binding [2]: binds | binding [3]: binds
B2: Hst4-TAP (genomic TAP-tagged Hst4) (protein, UniProt Q9UR39 1-415)
chain: B1 chain
